# Primary screen of a compound library

Chains of the proteins cited; added tags and fusions are not shown.
UniProt E9BF75, entry or part of it: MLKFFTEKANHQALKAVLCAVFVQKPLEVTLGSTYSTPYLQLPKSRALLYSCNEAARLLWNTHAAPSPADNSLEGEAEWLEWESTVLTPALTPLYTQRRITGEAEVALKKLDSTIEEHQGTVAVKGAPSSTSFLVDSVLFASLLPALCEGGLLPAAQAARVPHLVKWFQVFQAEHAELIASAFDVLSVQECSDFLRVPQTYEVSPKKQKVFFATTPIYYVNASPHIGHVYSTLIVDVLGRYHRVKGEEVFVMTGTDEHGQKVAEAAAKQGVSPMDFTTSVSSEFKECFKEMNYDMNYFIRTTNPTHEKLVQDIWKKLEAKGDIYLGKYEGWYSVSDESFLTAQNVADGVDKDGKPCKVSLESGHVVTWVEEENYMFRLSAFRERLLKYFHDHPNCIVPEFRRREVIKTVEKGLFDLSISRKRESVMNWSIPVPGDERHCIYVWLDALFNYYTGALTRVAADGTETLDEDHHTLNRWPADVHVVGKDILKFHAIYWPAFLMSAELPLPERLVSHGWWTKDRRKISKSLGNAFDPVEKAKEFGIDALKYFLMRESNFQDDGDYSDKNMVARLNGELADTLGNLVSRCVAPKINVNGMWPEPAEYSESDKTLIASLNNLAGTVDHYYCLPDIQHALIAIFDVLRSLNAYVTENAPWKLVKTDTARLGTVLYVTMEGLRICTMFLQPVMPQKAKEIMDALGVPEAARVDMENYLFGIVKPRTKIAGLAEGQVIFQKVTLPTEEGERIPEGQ

Data taken from ChEMBL document CHEMBL3988442, “University of Dundee, Small-Polar-MMV Screening Library” (2021).

Results are percentages, as filed. How 0% and 100% were set is not recorded. Most values in the screen are low, and negative values occur. Compounds were drawn at random from those tested, without regard to their results.

A: 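Primary screen of methionyl-tRNA synthetase; the read-out is not stated. Target: Methionyl-tRNA synthetase (putative), Leishmania donovani (UniProt E9BF75). The test concentration is not given. The values are filed as inhibition. Of about 68,000 compounds tested this way, about 24 (0.035%) reached 50% or more in at least one test.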
B: 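Assay on Mycobacterium tuberculosis, filed only as a heat shock assay from Cornell; the read-out is not stated. The concentration is filed as 10 mM, unlikely as a test dose, so the dose is not known. The record gives no direction; compounds that gave an IC50 in retests scored well above the rest, so higher reads as stronger inhibition. About 69,000 compounds were tested under these conditions; 1.4% (about 930) showed 50% or more at least once.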

compound: CC(C)N(C)Cc1nnn2c1CN(Cc1cccnc1)CCC2.O=C(O)C(F)(F)F.O=C(O)C(F)(F)F.O=C(O)C(F)(F)F
B: -0.7766

compound: Cc1ccccc1-c1cc(NC(=O)CC(C)C)n(CCO)n1
A: 14.79
B: -8.706

compound: CCCC1(C(=O)O)CCCN(C(=O)c2cc(Cl)ccc2F)C1 (stereo unspecified)
A: 9.254
B: 1.57

compound: OCc1ccc(CNc2ccccc2CN2CCC(O)CC2)o1
A: 15.25
B: 7.954

compound: O=C(O)c1ccc(CN2CCC(c3ccnc4ccnn34)CC2)cc1
A: 5.806
B: -1.231

compound: COc1ccc(C(=O)NCCCNc2ncccn2)c(OC)c1
A: 17.6
B: -21.52

compound: Cc1cnc(Cn2cc(-c3cccc(C(C)N(C)C)c3)nn2)cn1 (stereo unspecified)
A: 8.939
B: -27.62

compound: Cc1cc(-c2nccs2)nc(C2CCN(Cc3ccccn3)CC2)n1
A: 16.83
B: 15.13

compound: CN(Cc1cc[nH]n1)C(=O)c1cn(Cc2ccccc2Cl)nn1
A: 12.33
B: -1.741

compound: CO[C@H]1CN(C(=O)OC(C)(C)C)CC1NCc1cc[nH]c1 (stereo partly specified)
A: 13.64
B: 3.566

compound: Cc1nnc(N2C[C@H]3OCC[C@H]3[C@H](C(=O)NCC3CC3)C2)s1
A: 11.35

compound: CC(C)(C)NC(=O)NCc1cnn2ccccc12
A: 13.04
B: 13.95

compound: CN(CCc1ccccc1)Cc1cnc(C2(C)CCCCO2)nc1 (stereo unspecified)
A: 19.06
B: -26.41

compound: COC(=O)CNC(=O)C(C(C)C)n1cnc2cc(F)c(F)cc21 (stereo unspecified)
A: 10.31
B: -20.3

compound: Cc1cc2n(n1)CC(CNCc1ccc(OCC3CC3)nc1)CN2 (stereo unspecified)
A: 14.53
B: 26.98

compound: Cc1nc2ccccc2c(=O)n1CCCC(=O)N1CCNC(=O)CC1
A: 17.49
B: -33.05

compound: Cn1ccc(C(=O)N2CCCN(CCCc3ccccc3)CC2)cc1=O
A: 20.62
B: 4.457

compound: CCc1cc(C(=O)N2CC[C@@H](c3ccc4ccccc4c3)[C@H](O)C2)[nH]n1
A: 8.75
B: 13.26

compound: COCCCNS(=O)(=O)c1cc(Br)sc1C
A: 13.23
B: 21.83

compound: Cc1nnn2c1COC(CNCc1nccs1)C2 (stereo unspecified)
A: 5

compound: CC(C)N(C(=O)Cn1c(-c2ccco2)cc2cccnc21)C(C)C.Cl
B: 22.85

compound: O=C(O)C1(Cc2cc(-c3ccc(F)cc3)no2)CCOCC1
A: 3.39
B: 37.07

compound: [H][C@@]1([C@H](C)C(=O)NCCOC)CCc2c(C)cc(OCC(=O)O)c(C)c2C1
B: -9.352

compound: CC(=O)N1CCc2c(nc(N(C)C)nc2NCCC2CCCCO2)C1 (stereo unspecified)
A: 10.47
B: -3.08

compound: CC(=O)NCCNC(=O)NCC1Cc2ccccc2O1 (stereo unspecified)
A: 12.89
B: 1.858

compound: Cc1cccc2c(CCNS(=O)(=O)C3CCOC3)c[nH]c12 (stereo unspecified)
A: -6.354
B: -18.81

compound: COC1CCCN(C(=O)NCC(C)(C)SC)C1 (stereo unspecified)
A: 14.95
B: -3.05

compound: Cc1noc(C)c1CN1C(=O)[C@H]2CC[C@@H]1CN(Cc1cccnc1N)C2
A: 0.885

compound: O=C(Nc1cccnc1-n1cncn1)C1CCC1
A: 8.993
B: -14.66

compound: Cc1cccnc1NC(=O)C1CCCN(c2cccc(C(F)(F)F)n2)C1 (stereo unspecified)
A: 17.71
B: 6.921

compound: COc1ccc(Br)cc1S(=O)(=O)N(C)Cc1ccc(N(C)C)cc1
A: -0.838
B: -20.05

compound: Cc1ccccc1-c1cncc(C2CCN(CCO)CC2)n1
A: 16.38
B: -5.004

compound: Clc1ccc(-c2c[nH]c([C@@H]3COCCN3)n2)cc1
A: 6.015
B: 8.057

compound: [H][C@@]12CS(=O)(=O)C[C@]1([H])N(CC(=O)N1CCCCC1)CCN2c1ncccn1
B: 1.969

compound: CC(NC(=O)c1cccs1)C(=O)NCc1ccccn1 (stereo unspecified)
A: 15.06
B: -5.171

compound: O=C(O)C(F)(F)F.[H][C@@]12COC[C@]1([H])[C@@H](OCc1cccnc1)CN2C(=O)NC(C)C
B: 2.427

compound: CN(C)CCN1CCCC12CCCN(Cc1ccoc1)C2 (stereo unspecified)
A: -3.806

compound: Cc1ccc(CNC(=O)Cn2nc(-c3ccc(F)cc3)oc2=O)cc1F
A: 12.57
B: 17.85

compound: Cc1cc(CN2CCN(CCOc3cccc(C#N)c3)CC2)no1
A: 9.449
B: -10.41

compound: CC(C)C[C@H](N)COc1cccc(F)c1Oc1ccccc1
A: 18.1
B: 5.666

compound: CC(CCNC(=O)NCCNc1cnccn1)c1ccccc1 (stereo unspecified)
A: 12.2
B: -3.549

compound: CC(C)c1cc(C(=O)N2CCc3ccccc3C2C(=O)O)nn1C (stereo unspecified)
A: 7.397
B: 8.851

The first 4 entries again:

* CC(C)N(C)Cc1nnn2c1CN(Cc1cccnc1)CCC2.O=C(O)C(F)(F)F.O=C(O)C(F)(F)F.O=C(O)C(F)(F)F | B: -0.7766%
* Cc1ccccc1-c1cc(NC(=O)CC(C)C)n(CCO)n1 | A: 14.79%; B: -8.706%
* CCCC1(C(=O)O)CCCN(C(=O)c2cc(Cl)ccc2F)C1 (stereo unspecified) | A: 9.254%; B: 1.57%
* OCc1ccc(CNc2ccccc2CN2CCC(O)CC2)o1 | A: 15.25%; B: 7.954%